Source: PubChem BioAssay AID330 (DTP/NCI, 2004)
The list does not hold the whole screen: it gathers tests that were run many times, whatever their T/C, doses with no T/C, and many T/C values between a quarter and a half above the control. Further doses and runs are listed elsewhere. T/C gives the treated animals as a percentage of the vehicle group. Some doses have a count of surviving animals in place of a T/C: the source holds a T/C of zero for them, seemingly a mark for toxic or unscored doses. Some survivor counts are full or nearly so, which does not show that the dose was tolerated: the source hardly ever lists a survival T/C far under the control, and the zero likely stands for such cases as well. Survivors were counted at the toxicity check, usually on the fifth day, unless a day is given; later deaths do not show. Schedule codes are those of the source, taken here to give the interval after Q, in days (D) or hours (H), and the number of doses after X. Some molecules as drawn cover several salts, stereoisomers or complexes of the source; a dose is that of the sample tested. Some entries were tested several times; the results are listed from low to high. For survival time, this PubChem deposit counts one and a half times the control or more as active, and values a quarter to a half above the control carry no call in these data; other NCI protocols may use other cut-offs. Some T/C values carry the count of animals alive at the toxicity check (mostly the fifth day); where none is given, no animal had died by that day. Signs of the kind (2×) count equal records among those shown.

System: P388 leukemia ip, CD2F1 mice, survival T/C
Experiment: NCI In Vivo Anticancer Drug Screen. Data for tumor model P388 Leukemia (intraperitoneal) in CD2F1 (CDF1) mice
Details: T/C endpoint: median survival time, higher T/C = longer survival
[1] = dose: 10.0 mg/kg/injection, schedule: Q01DX009 (ip), vehicle: water

With COc1cc2c[n+](C)c3c4cc5c(cc4ccc3c2cc1OC)OCO5 the T/C (dose: 1.0 mg/kg/injection, schedule: Q01DX009 (ip), vehicle: saline) was 133 % of control, the T/C (dose: 1.0 mg/kg/injection, schedule: Q01DX009 (ip), vehicle: water) was 107, 123, 126, 129, 141 % of control and the T/C (dose: 1.0 mg/kg/injection, schedule: Q03HX016 (ip), vehicle: saline with Tween-80) was 131 % of control. For the same compound, the T/C (dose: 1.0 mg/kg/injection, schedule: Q03HX024 (ip), vehicle: saline with Tween-80) was 134 % of control, the T/C (dose: 1.25 mg/kg/injection, schedule: Q01DX009 (ip), vehicle: DMSO) was 126 % of control and the T/C (dose: 1.25 mg/kg/injection, schedule: Q01DX009 (ip), vehicle: saline) was 125 % of control. The T/C (dose: 1.25 mg/kg/injection, schedule: Q01DX009 (ip), vehicle: water) was 109, 113, 114, 115 (2×), 119, 123, 125, 126, 136 % of control, the T/C (dose: 2.0 mg/kg/injection, schedule: Q01DX009 (ip), vehicle: distilled water + Tween-80) was 128, 129, 131, 135, 136 % of control and the T/C (dose: 2.0 mg/kg/injection, schedule: Q01DX009 (ip), vehicle: saline) was 145 % of control. The T/C (dose: 2.0 mg/kg/injection, schedule: Q01DX009 (ip), vehicle: water, evaluated on day 30) was 109, 129, 131, 132, 133, 137 % of control, the T/C (dose: 2.0 mg/kg/injection, schedule: Q01DX009 (ip), vehicle: water, evaluated on day 60) was 118 % of control and the T/C (dose: 2.0 mg/kg/injection, schedule: Q03HX016 (ip), vehicle: saline with Tween-80) was 145 % of control. For the same compound, the T/C (dose: 2.0 mg/kg/injection, schedule: Q03HX024 (ip), vehicle: water) was 127 % of control, the T/C (dose: 2.5 mg/kg/injection, schedule: Q01DX009 (ip), vehicle: DMSO) was 134 and 141 % of control (2×) and the T/C (dose: 2.5 mg/kg/injection, schedule: Q01DX009 (ip), vehicle: saline) was 130 and 140 % of control. The T/C (dose: 2.5 mg/kg/injection, schedule: Q01DX009 (ip), vehicle: water) was 107, 116, 120, 122, 123, 129, 132, 136, 148, 151 % of control, the T/C (dose: 3.12 mg/kg/injection, schedule: Q01DX009 (ip), vehicle: water) was 140 [9 of 10 alive] and 147 % of control and the T/C (dose: 4.0 mg/kg/injection, schedule: Q01DX005 (ip), vehicle: distilled water + Tween-80) was 129 % of control. The T/C (dose: 4.0 mg/kg/injection, schedule: Q01DX005 (ip), vehicle: saline) was 129 % of control, the T/C (dose: 4.0 mg/kg/injection, schedule: Q01DX009 (ip), vehicle: distilled water + Tween-80) was 133, 134, 139, 140, 152 % of control and the T/C (dose: 4.0 mg/kg/injection, schedule: Q01DX009 (ip), vehicle: water, evaluated on day 30) was 122, 137, 140, 141, 143, 148 % of control. The T/C (dose: 4.0 mg/kg/injection, schedule: Q01DX009 (ip), vehicle: water, evaluated on day 60) was 122 % of control, the T/C (dose: 4.0 mg/kg/injection, schedule: Q03HX008 (ip), vehicle: saline with Tween-80) was 135 % of control and the T/C (dose: 4.0 mg/kg/injection, schedule: Q03HX016 (ip), vehicle: saline with Tween-80) was 147 % of control. The T/C (dose: 4.0 mg/kg/injection, schedule: Q03HX024 (ip), vehicle: saline with Tween-80) was 147 % of control, the T/C (dose: 4.0 mg/kg/injection, schedule: Q03HX024 (ip), vehicle: water) was 130 % of control and the T/C (dose: 4.0 mg/kg/injection, schedule: Q04DX003 (ip), vehicle: other) was 125 % of control. The T/C (dose: 5.0 mg/kg/injection, schedule: Q01DX009 (ip), vehicle: DMSO) was 145 and 148 % of control, the T/C (dose: 5.0 mg/kg/injection, schedule: Q01DX009 (ip), vehicle: saline) was 136 and 140 % of control and the T/C (dose: 5.0 mg/kg/injection, schedule: Q01DX009 (ip), vehicle: water) was 113 [5 of 6 alive], 118, 123, 123 [5 of 6 alive], 124, 131, 133, 137, 147, 151, 155 % of control. The T/C (dose: 6.25 mg/kg/injection, schedule: Q01DX009 (ip), vehicle: saline with Tween-80) was 142 % of control, the T/C (dose: 6.25 mg/kg/injection, schedule: Q01DX009 (ip), vehicle: water) was 141 and 149 % of control and the T/C (dose: 8.0 mg/kg/injection, schedule: Q01DX005 (ip), vehicle: distilled water + Tween-80) was 134 % of control. The T/C (dose: 8.0 mg/kg/injection, schedule: Q01DX005 (ip), vehicle: saline) was 131 % of control, the T/C (dose: 8.0 mg/kg/injection, schedule: Q01DX009 (ip), vehicle: distilled water + Tween-80) was 139, 144 (2×), 149, 150 % of control and the T/C (dose: 8.0 mg/kg/injection, schedule: Q01DX009 (ip), vehicle: water, evaluated on day 30) was 117, 137, 142, 146, 151, 157 % of control. The T/C (dose: 8.0 mg/kg/injection, schedule: Q01DX009 (ip), vehicle: water, evaluated on day 60) was 130 % of control, the T/C (dose: 8.0 mg/kg/injection, schedule: Q03HX008 (ip), vehicle: saline with Tween-80) was 142 % of control and the survivor count (dose: 8.0 mg/kg/injection, schedule: Q03HX024 (ip), vehicle: water) was 8 of 10. For the same compound, the T/C (dose: 8.0 mg/kg/injection, schedule: Q04DX003 (ip), vehicle: other) was 133 and 141 % of control, the T/C (dose: 8.0 mg/kg/injection, schedule: Q04DX003 (ip), vehicle: saline with Tween-80) was 127 % of control and the T/C (dose: 8.0 mg/kg/injection, schedule: Q08DX002 (ip), vehicle: saline with Tween-80) was 126 % of control. The T/C (dose: 10.0 mg/kg/injection, schedule: Q01DX005 (ip), vehicle: Klucel (hydroxypropylcellulose) (HPC), evaluated on day 30) was 93, 94, 106, 122, 123 (2×), 132, 133 (2×), 134, 138 (3×), 139 (2×), 141 (2×), 143, 144, 150, 152, 153 (3×), 154, 155, 156, 157, 164, 166, 174, 176 % of control, the T/C (dose: 10.0 mg/kg/injection, schedule: Q01DX005 (ip), vehicle: Klucel (hydroxypropylcellulose) (HPC), evaluated on day 35) was 151 % of control and the T/C (dose: 10.0 mg/kg/injection, schedule: Q01DX009 (ip), vehicle: DMSO) was 144 % of control. For the same compound, the T/C (dose: 10.0 mg/kg/injection, schedule: Q01DX009 (ip), vehicle: Klucel (hydroxypropylcellulose) (HPC), evaluated on day 30) was 102, 126, 127 (2×), 128, 132, 133, 134, 139, 141 (2×), 142, 144 (2×), 150 (2×), 151, 155, 159 (3×), 160, 161, 163, 164 (3×), 165, 169, 171, 178 % of control, the T/C (dose: 10.0 mg/kg/injection, schedule: Q01DX009 (ip), vehicle: Klucel (hydroxypropylcellulose) (HPC), evaluated on day 35) was 145 and 151 % of control and the survivor count (dose: 10.0 mg/kg/injection, schedule: Q01DX009 (ip), vehicle: Klucel (hydroxypropylcellulose) (HPC)) was 3 of 6 and 6 of 6. For the same compound, the T/C (dose: 10.0 mg/kg/injection, schedule: Q01DX009 (ip), vehicle: saline) was 146 and 147 % of control, the T/C [1] was 103, 125, 129, 140, 142, 152, 161 % of control (2×) and the survivor count [1] was 5 of 6 and 6 of 6. The T/C (dose: 12.5 mg/kg/injection, schedule: Q01DX009 (ip), vehicle: saline with Tween-80) was 126 % of control, the T/C (dose: 16.0 mg/kg/injection, schedule: Q01DX005 (ip), vehicle: distilled water + Tween-80) was 139 % of control and the T/C (dose: 16.0 mg/kg/injection, schedule: Q01DX005 (ip), vehicle: saline) was 140 % of control. For the same compound, the T/C (dose: 16.0 mg/kg/injection, schedule: Q01DX009 (ip), vehicle: distilled water + Tween-80) was 95, 146, 152, 155, 170 % of control, the T/C (dose: 16.0 mg/kg/injection, schedule: Q01DX009 (ip), vehicle: water, evaluated on day 30) was 102, 146, 159, 172, 173, 185 % of control and the T/C (dose: 16.0 mg/kg/injection, schedule: Q01DX009 (ip), vehicle: water, evaluated on day 60) was 129 % of control. For the same compound, the survivor count (dose: 16.0 mg/kg/injection, schedule: Q01DX009 (sc), vehicle: water) was 10 of 10, the survivor count (dose: 16.0 mg/kg/injection, schedule: Q03HX008 (ip), vehicle: water) was 0 of 10 and the T/C (dose: 16.0 mg/kg/injection, schedule: Q03HX016 (ip), vehicle: saline with Tween-80) was 148 % of control. For the same compound, the survivor count (dose: 16.0 mg/kg/injection, schedule: Q03HX016 (ip), vehicle: water) was 0 of 10, the T/C (dose: 16.0 mg/kg/injection, schedule: Q03HX024 (ip), vehicle: saline with Tween-80) was 138 % of control and the survivor count (dose: 16.0 mg/kg/injection, schedule: Q03HX024 (ip), vehicle: water) was 0 of 10. For the same compound, the T/C (dose: 16.0 mg/kg/injection, schedule: Q04DX003 (ip), vehicle: other) was 133 and 142 % of control, the T/C (dose: 16.0 mg/kg/injection, schedule: Q04DX003 (ip), vehicle: saline with Tween-80) was 132 % of control and the T/C (dose: 16.0 mg/kg/injection, schedule: Q08DX002 (ip), vehicle: saline with Tween-80) was 132 % of control. For the same compound, the T/C (dose: 20.0 mg/kg/injection, schedule: Q01DX005 (ip), vehicle: Klucel (hydroxypropylcellulose) (HPC), evaluated on day 30) was 90, 123, 129, 132, 140, 142 (2×), 146 (2×), 147, 148 (2×), 150, 151, 153 (2×), 154, 156 (2×), 157 (2×), 160 [5 of 6 alive], 162, 163, 169, 170, 171, 172, 175, 175 [5 of 6 alive], 180 % of control, the T/C (dose: 20.0 mg/kg/injection, schedule: Q01DX005 (ip), vehicle: Klucel (hydroxypropylcellulose) (HPC), evaluated on day 35) was 161 % of control and the survivor count (dose: 20.0 mg/kg/injection, schedule: Q01DX005 (ip), vehicle: Klucel (hydroxypropylcellulose) (HPC)) was 3 of 3. The T/C (dose: 20.0 mg/kg/injection, schedule: Q01DX009 (ip), vehicle: Klucel (hydroxypropylcellulose) (HPC), evaluated on day 30) was 112, 127, 128, 129, 135, 139, 142, 145, 147, 150, 155, 156, 158 (2×), 160, 161 (2×), 163, 164, 165, 168 [5 of 6 alive], 170, 172, 173, 175 (2×), 181, 192, 194, 199, 200, 218, 220 % of control, the T/C (dose: 20.0 mg/kg/injection, schedule: Q01DX009 (ip), vehicle: Klucel (hydroxypropylcellulose) (HPC), evaluated on day 35) was 169 and 174 % of control and the T/C (dose: 20.0 mg/kg/injection, schedule: Q01DX009 (ip), vehicle: saline) was 148 % of control. For the same compound, the T/C (dose: 20.0 mg/kg/injection, schedule: Q01DX009 (ip), vehicle: water) was 145, 148, 151, 158, 176 % of control.
